Laboratory results taken from the supplement of paper PMC3334620.
In all, about 33,000 sequences were measured (“E-score (-0.5 to 0.5)”: median about -0.015, highest 2% from about 0.3 on). This is one part of the list.

target: T1, Abf1 (UniProt P14164); assay: PBM E-score (8-mer binding enrichment) (E-score (-0.5 to 0.5)); higher = stronger / more preferred TF binding; settings: protein concentration: 200 nM; construct: GST-full length
T1 sequence: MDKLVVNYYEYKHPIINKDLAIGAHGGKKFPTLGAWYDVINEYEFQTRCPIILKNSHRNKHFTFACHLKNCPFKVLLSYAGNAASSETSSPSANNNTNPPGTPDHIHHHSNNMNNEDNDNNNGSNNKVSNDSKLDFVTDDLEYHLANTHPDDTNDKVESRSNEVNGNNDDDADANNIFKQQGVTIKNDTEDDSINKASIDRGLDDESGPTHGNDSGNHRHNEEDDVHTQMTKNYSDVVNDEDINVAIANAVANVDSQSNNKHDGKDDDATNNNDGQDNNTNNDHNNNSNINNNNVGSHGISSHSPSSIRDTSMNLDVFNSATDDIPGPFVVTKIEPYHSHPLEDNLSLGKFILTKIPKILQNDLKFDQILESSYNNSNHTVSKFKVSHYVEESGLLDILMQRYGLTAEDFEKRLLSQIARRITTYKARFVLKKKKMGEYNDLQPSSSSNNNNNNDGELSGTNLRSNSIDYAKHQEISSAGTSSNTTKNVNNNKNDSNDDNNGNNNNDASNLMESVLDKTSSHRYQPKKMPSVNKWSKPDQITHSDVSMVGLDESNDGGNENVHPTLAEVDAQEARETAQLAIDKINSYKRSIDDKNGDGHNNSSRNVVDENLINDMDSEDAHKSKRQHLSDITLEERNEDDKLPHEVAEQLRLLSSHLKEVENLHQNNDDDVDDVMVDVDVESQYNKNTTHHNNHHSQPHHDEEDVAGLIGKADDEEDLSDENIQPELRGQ
Procedure: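 Universal 'all 10-mer' protein binding microarrays (Agilent AMADID 015681) probed with GST-tagged S. cerevisiae TFs (full-length or DBD) made by in vitro transcription/translation (PURExpress), about 100-200 nM. Bound TF was detected with fluorescent anti-GST. Each ungapped 8-mer (which stands for itself and its reverse complement) is scored by the PBM enrichment score (E-score), a modified Wilcoxon-Mann-Whitney statistic from -0.5 to +0.5, computed with the Universal PBM Analysis Suite. Scale: above 0.35 generally sequence-specific binding.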

Row | Sequence | PBM E-score
1 | CGTTCCGC | -0.0241
2 | GCTCCCAC | -0.147
3 | AGCTGCCA | -0.0166
4 | CAAACTAC | 0.0778
5 | ATTTTCAA | 0.169
6 | ACATAGAA | 0.0504
7 | CCAGATCG | 0.0622
8 | CCCACTTA | -0.0867
9 | CGCAACAG | 0.085
10 | ACAGGGCC | -0.117
11 | ACGGTCGA | 0.0426
12 | CGCATGCG | -0.186
13 | AACCGTTG | 0.103
14 | CGTGGACA | 0.149
15 | AAAACTGC | 0.0499
16 | CTACAGCC | -0.269
17 | CTAGGAAC | -0.176
18 | CTGAATGA | 0.118
19 | AAAGCCGT | 0.141
20 | GCACGGGC | -0.0236
21 | ATCTTTTA | 0.102
22 | GACGTCAA | 0.0747
23 | ACGCGTCT | -0.0644
24 | CTGCGCTC | -0.237
25 | AGTGCCCG | -0.0245

Row | Sequence | PBM E-score
26 | AACCCTAA | 0.00952
27 | ATAGAAGG | 0.00397
28 | AGCCCCTG | -0.315
29 | GCAAGTGC | -0.309
30 | ATGATGTG | 0.265
31 | ATAGGTCC | 0.0302
32 | AACGTAAA | 0.153
33 | GTCTTTTA | -0.0526
34 | CGTCCGAA | 0.172
35 | AACGGCGC | 0.123
36 | CACGGCAG | 0.227
37 | AGATTTTC | 0.108
38 | CGTCAGAC | -0.012
39 | CTCGTGAA | 0.224
40 | CCATCGGA | -0.168
41 | GCGGTTAA | -0.26
42 | GACCTAGC | -0.196
43 | CACGAGAA | 0.0195
44 | GTGAACGA | 0.0714
45 | GCTTTTAC | -0.0448
46 | ACTTATCT | 0.264
47 | ACGGTTTA | 0.0908
48 | CCGGCACA | 0.175
49 | AGAGGCCG | -0.189
50 | ATATAAAA | 0.185

Row | Sequence | PBM E-score
51 | CGATCGAG | -0.0536
52 | GCATAACA | 0.0217
53 | ATTGATGC | 0.0481
54 | CAGACCGG | -0.265
55 | CTGAATCA | -0.0743
56 | GCATGGAC | -0.0661
57 | AGGCCAAC | -0.118
58 | GTTGTTTA | 0.0212
59 | CGAGACAC | -0.00878
60 | ATCTTGGA | 0.052
61 | ACTCTAGA | -0.0436
62 | CAACGACG | 0.139
63 | AGCGTGTG | -0.101
64 | ATAAACGA | 0.288
65 | CCCTAATC | -0.118
66 | ACGAAAGG | 0.276
67 | CATGCCCA | -0.289
68 | GCGGCCGC | 0.0297
69 | ACGAAGTC | 0.152
70 | ACACTCAT | 0.125
71 | ACTTTCGA | 0.0942
72 | GCGTACGC | -0.158
73 | AAAAGTTA | 0.151
74 | GGCAGTGA | -0.0277
75 | CAAAAGAG | -0.049

Some values from the list:
PBM E-score, ACGAAGTC reads 0.152
PBM E-score, ACGAAAGG reads 0.276
PBM E-score, AAAGCCGT reads 0.141
PBM E-score, CGCAACAG reads 0.085
PBM E-score, ATCTTTTA reads 0.102
PBM E-score, GCACGGGC reads -0.0236

Further records follow.

Row | Sequence | PBM E-score
76 | AATCGGCA | -0.00998
77 | CTCACTGA | 0.0781
78 | CACCGGCC | -0.199
79 | GGGCAGAC | -0.227
80 | AATTCAAC | 0.171
81 | CGATGGAC | 0.0838
82 | ATATTTGG | 0.0242
83 | GACTACGC | -0.00206
84 | ACTATCCG | 0.172
85 | CTCCGGAA | -0.179
86 | TCTTTCCA | -0.0875
87 | CCAGCCCG | -0.235
88 | CCTACAGG | -0.369
89 | ATAACAAG | 0.122
90 | AAAGGTAA | 0.133
91 | ATGGAACA | -0.0586
92 | AGGGAAAC | -0.0375
93 | AGAGGTAA | -0.117
94 | GATCCGAA | 0.0965
95 | TATGATCA | 0.309
96 | CGTTAAAC | 0.13
97 | CACTAAAA | 0.0572
98 | CCCTTAGC | -0.268
99 | AGGATCTA | -0.0972
100 | GGAAAAGA | -0.312

Row | Sequence | PBM E-score
101 | ATTACGGA | 0.303
102 | AATCCCGT | 0.14
103 | GATGTAAA | 0.185
104 | TCGTAACA | 0.265
105 | GGCCGCAC | -0.0964
106 | ACTCAGGA | -0.091
107 | GCCGCGCA | -0.208
108 | AAAACGTG | 0.111
109 | AAGATCGG | -0.163
110 | GCGGTAAC | -0.0659
111 | AACGAAGA | 0.188
112 | CTCCTTGC | -0.28
113 | GGCCGAAA | -0.0983
114 | AGAATGGG | -0.166
115 | AAACGGTC | 0.187
116 | CCTATGGC | -0.116
117 | ACTCAGGG | -0.221
118 | CGAGCGCG | -0.0408
119 | GGACACAC | -0.103
120 | CACTAGGG | -0.0458
121 | AGTACAAC | 0.0712
122 | CAATGCGG | -0.281
123 | AAGTATAG | -0.0205
124 | CCTAGTTC | -0.177
125 | AATCGACA | 0.122

Row | Sequence | PBM E-score
126 | ATTGCGAG | 0.00807
127 | TCTGGGAA | 0.0332
128 | AGCTACCT | -0.177
129 | TATTTTCA | 0.0674
130 | ACTCGTCG | 0.149
131 | CTGCTCCA | -0.226
132 | AGCTTTTG | 0.029
133 | TCGTCGAA | 0.355
134 | GTTCTAGA | 0.109
135 | CACACCAA | -0.0551
136 | GCCACCAA | 0.0672
137 | ATGTCATA | 0.176
138 | GAGTCTTA | -0.148
139 | GGTCTCCA | -0.0422
140 | CCTTGACG | -0.0078
141 | AATTACGA | 0.186
142 | AGCCGCGC | -0.169
143 | AGAGCGTG | -0.00853
144 | CCATGACC | -0.127
145 | AATGAAGA | -0.0408
146 | CCTTCCAG | -0.184
147 | GGCCCGCA | -0.191
148 | AGATGCCA | -0.0719
149 | ATGCGAAA | 0.0768
150 | CTTATCTA | 0.14

Row | Sequence | PBM E-score
151 | AGGTGGCC | -0.195
152 | CACAAGGG | -0.242
153 | ACACAGGT | -0.0725
154 | ATAAGTAG | 0.216
155 | AGTGGGAC | -0.175
156 | AGAACATG | 0.162
157 | GACGTCCC | 0.0416
158 | CCAACGGG | -0.136
159 | CGGTATCA | 0.204
160 | CATGTATC | 0.183
161 | GCCCTTCA | -0.0402
162 | TGCTTAAA | 0.0395
163 | AGGTCGGA | -0.0824
164 | AGCGTAAT | 0.00725
165 | TAAACCAA | 0.0491
166 | ATTTACTC | 0.145
167 | TCCAGTCA | -0.132
168 | GATTTAGC | 0.145
169 | AGGATGTG | -0.0696
170 | ACGGGCCG | 0.147
171 | CGGCTGCC | -0.0227
172 | GGAGACCC | -0.289

3 entries from above, as comma-separated lines.
Row,Sequence,PBM E-score
154,ATAAGTAG,0.216
168,GATTTAGC,0.145
171,CGGCTGCC,-0.0227
